Experimental data taken from article PMC13100048.

Amino acid sequences for entries named in this document (tags omitted). A change or cut given only in a name is not applied to a line headed by its entry.
UniProt Q54HY5: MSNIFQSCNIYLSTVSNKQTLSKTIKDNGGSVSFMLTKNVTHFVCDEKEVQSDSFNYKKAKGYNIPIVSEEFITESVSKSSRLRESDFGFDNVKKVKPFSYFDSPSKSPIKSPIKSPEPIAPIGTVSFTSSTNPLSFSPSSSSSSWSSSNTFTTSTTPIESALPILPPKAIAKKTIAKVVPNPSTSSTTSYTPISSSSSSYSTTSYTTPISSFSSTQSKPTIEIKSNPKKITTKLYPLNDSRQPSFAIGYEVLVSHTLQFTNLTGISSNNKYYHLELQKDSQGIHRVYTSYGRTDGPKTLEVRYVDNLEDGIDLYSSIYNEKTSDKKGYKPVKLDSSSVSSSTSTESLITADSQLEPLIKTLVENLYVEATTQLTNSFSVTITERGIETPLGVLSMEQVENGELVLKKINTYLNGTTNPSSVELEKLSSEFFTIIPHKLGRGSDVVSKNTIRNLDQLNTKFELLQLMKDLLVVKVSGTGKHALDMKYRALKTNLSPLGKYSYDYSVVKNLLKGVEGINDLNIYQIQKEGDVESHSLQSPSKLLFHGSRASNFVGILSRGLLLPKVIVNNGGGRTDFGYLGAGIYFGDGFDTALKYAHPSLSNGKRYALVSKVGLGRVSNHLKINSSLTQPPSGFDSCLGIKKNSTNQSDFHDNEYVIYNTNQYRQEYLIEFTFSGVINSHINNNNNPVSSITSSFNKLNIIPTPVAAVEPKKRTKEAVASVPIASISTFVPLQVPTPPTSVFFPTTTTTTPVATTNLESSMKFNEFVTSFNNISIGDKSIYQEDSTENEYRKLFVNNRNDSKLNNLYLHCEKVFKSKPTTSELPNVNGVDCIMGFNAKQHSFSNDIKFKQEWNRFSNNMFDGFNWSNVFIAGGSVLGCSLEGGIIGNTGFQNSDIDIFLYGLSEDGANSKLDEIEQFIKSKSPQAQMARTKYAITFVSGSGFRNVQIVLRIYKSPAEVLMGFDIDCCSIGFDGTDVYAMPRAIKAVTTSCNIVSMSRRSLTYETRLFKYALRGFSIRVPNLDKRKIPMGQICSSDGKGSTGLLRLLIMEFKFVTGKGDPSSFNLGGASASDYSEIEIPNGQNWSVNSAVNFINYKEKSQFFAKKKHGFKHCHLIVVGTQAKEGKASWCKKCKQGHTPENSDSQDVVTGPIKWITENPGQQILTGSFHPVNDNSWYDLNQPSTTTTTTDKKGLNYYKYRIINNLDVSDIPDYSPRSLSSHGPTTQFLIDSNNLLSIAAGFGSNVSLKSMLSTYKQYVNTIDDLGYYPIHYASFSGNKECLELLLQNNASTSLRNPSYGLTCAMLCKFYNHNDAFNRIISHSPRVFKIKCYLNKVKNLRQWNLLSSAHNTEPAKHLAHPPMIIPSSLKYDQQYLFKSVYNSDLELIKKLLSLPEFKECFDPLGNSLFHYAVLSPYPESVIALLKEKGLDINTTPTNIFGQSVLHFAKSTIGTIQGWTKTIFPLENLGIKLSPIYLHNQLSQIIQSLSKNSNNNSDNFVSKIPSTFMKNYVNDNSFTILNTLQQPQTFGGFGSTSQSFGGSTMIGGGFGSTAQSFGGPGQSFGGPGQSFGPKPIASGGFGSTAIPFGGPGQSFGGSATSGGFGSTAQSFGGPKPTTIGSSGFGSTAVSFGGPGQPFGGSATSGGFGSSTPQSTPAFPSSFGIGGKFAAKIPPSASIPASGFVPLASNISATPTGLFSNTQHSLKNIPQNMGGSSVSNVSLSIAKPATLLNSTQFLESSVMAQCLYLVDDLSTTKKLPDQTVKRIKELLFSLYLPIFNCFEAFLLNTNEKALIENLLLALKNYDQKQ
UniProt Q54CB5: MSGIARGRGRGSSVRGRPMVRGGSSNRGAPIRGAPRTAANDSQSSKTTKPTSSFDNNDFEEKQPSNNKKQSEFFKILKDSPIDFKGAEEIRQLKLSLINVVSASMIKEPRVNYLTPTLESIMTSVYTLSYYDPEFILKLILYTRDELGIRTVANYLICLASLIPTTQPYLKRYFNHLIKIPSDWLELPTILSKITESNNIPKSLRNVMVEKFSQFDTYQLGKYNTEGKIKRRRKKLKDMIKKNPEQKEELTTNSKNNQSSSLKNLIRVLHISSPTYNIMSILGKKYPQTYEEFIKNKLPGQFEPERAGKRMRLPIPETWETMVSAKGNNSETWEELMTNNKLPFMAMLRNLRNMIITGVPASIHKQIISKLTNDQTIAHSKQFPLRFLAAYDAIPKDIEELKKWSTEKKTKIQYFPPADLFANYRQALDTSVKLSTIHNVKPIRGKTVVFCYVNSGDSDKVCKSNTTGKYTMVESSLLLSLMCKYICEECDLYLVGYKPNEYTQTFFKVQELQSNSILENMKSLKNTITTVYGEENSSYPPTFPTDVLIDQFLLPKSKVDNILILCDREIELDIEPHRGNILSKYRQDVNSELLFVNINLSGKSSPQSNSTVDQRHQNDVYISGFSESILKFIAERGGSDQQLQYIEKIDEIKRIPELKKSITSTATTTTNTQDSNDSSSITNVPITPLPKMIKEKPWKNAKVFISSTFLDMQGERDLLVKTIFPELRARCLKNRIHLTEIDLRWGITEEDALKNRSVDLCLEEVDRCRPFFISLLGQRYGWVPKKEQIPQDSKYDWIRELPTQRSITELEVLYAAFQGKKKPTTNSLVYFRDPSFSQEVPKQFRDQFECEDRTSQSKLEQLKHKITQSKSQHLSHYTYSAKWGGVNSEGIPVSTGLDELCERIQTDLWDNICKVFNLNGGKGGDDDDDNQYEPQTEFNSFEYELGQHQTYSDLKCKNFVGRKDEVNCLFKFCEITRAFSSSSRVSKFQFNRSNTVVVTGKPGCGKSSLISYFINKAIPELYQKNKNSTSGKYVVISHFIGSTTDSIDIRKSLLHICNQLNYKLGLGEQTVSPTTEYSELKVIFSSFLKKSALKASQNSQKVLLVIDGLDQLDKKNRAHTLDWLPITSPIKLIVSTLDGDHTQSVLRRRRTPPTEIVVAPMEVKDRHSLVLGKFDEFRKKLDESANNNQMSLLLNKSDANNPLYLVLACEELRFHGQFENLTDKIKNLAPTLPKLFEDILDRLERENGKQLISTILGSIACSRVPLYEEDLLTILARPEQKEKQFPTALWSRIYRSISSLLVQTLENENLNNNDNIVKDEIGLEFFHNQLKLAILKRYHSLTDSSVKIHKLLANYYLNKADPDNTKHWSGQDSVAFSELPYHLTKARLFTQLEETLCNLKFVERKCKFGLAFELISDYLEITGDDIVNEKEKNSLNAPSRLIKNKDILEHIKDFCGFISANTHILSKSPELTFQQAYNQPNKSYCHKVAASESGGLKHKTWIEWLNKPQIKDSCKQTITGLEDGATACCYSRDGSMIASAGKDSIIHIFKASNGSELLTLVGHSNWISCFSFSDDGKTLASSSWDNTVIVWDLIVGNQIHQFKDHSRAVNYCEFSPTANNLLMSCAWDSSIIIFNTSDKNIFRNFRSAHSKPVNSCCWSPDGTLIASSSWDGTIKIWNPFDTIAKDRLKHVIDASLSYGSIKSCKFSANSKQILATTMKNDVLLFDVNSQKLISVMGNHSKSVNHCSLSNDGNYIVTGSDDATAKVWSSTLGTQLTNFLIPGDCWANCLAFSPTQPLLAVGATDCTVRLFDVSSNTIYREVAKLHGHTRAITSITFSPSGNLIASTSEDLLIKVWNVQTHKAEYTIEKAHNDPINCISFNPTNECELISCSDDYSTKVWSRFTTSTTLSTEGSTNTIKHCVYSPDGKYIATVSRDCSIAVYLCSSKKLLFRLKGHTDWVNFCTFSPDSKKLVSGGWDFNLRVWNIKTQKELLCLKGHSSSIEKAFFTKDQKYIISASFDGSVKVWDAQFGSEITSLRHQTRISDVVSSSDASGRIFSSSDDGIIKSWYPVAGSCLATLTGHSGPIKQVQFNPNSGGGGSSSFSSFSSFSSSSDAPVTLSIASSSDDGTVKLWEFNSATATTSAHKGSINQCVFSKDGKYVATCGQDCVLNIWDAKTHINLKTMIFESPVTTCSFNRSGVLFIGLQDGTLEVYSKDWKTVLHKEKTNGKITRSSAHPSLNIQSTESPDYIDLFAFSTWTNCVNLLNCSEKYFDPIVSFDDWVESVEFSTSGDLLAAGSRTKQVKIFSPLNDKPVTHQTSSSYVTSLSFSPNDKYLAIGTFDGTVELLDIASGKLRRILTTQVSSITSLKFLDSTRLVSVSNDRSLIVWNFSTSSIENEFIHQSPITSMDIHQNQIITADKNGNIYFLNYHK

T1: MVPA-TurboID fusion protein (D. discoideum Major Vault Protein A fused to the TurboID biotin ligase) (Dictyostelium discoideum) (UniProt P34118)
T1 sequence: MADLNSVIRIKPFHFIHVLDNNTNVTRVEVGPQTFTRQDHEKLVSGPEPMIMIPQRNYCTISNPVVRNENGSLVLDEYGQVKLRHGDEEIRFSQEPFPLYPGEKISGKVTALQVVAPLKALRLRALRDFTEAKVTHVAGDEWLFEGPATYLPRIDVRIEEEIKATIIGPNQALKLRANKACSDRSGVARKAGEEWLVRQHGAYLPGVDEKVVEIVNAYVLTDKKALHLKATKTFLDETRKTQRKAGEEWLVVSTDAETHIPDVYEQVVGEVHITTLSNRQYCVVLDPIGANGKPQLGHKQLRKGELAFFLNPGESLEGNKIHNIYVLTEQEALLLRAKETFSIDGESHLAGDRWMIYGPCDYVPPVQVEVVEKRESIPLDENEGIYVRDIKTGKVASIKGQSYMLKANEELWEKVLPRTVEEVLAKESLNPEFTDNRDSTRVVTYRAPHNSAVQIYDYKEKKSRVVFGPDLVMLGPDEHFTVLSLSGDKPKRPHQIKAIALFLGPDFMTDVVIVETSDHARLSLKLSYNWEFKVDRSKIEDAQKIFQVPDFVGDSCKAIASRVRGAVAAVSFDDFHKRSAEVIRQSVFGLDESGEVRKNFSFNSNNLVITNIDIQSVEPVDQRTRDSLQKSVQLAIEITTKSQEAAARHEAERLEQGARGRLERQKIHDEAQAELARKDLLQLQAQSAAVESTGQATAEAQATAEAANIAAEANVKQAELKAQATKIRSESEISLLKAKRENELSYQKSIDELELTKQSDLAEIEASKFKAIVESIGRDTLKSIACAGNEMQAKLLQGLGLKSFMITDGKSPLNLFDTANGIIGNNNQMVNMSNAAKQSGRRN


Assays:
[1] = target: T1, MVPA-TurboID fusion protein (D. discoideum Major Vault Protein A fused to the TurboID biotin ligase) (Dictyostelium discoideum); assay: proximity labelling; TurboID fused to the C-terminus of MVPA, expressed in D. discoideum; biotinylation 15 minutes with 50 µM biotin; RIPA lysis; biotinylated proteins isolated on MagStrep StrepTactin magnetic beads; LC-MS/MS (bulk and biotinylated peptides), differential abundance against a strain expressing TurboID alone (q < 0.01)
[2] = target: T1, MVPA-TurboID fusion protein (D. discoideum Major Vault Protein A fused to the TurboID biotin ligase) (Dictyostelium discoideum); assay: as above; remark: listed apart in the source

binding [1]	binding [2]	Molecule
binds	–	poly(ADP-ribose)polymerase Q54HY5 (from UniProt Q54HY5 1-1803)
binds	–	poly(ADP-ribose)polymerase Q54LJ4 (from UniProt Q54LJ4 1-2563)
binds	–	TEP1 (Q54CB5), likely Dictyostelium orthologue of Telomerase-associated protein 1 (from UniProt Q54CB5)
–	binds	Major Vault Protein B (protein, UniProt P54659 1-846) MATPVQASTVIRVKPHHYIHVLDNNTNVTRVEVGPQTFTRQDHERVLNPTPLPMILIPPRQYCIIENPIIRDKEGKLVVDKFNQPKLRHGDQEIRFSQDPFPLYPGEVVIAQPVPLQVIQTNSALRLKCLRDFVEVKADKTTVSHIAGDEWLFEGPGTYYPRVEVQVVEPVRAVIIKENQALKLRARLSFVDRRDVVRQVGEEWLVRESGAYLPGVSEEIVGFIQALVLTDRIAYQLLATRSFTDSFGKVRKAGEEWIITQKDCDTYIPDVNEKVIRDIKAITLTNRQYCIVENPIDPKTGKNKLGHKELLQGDRTFFLMPGESLVKGIQNVNVLSEDEALLLSAKEEFVEKKGTTTIVHKPGDLWMIYGPCDYIPPIQVDVVERRKRIPLDVNEGIYVRDIKTGKVRSVHGSSYMLLPNEERWAKPLAPIVEELLKKSASRDQNEEHNESDRDSTKVITYRVPHNAAVQIFDYRKKEARVVFGPELVMLEPDEEFTVLSLSGKIPKRPNHIRSLALFLGPDFMTDLITVETADHARLSLKLSYNWHFKVEQDNPSKLFATSDFTGDLCKATGSLVRAAVAASTFDNFHKHSSDIIQQAVFGSTDGSSNDCLYFETNGLVITNIDVQSVEPVDQRTLDSLQKSVQLAIEITTKSQEATARQEAERLEQMARGELERQKIIDEAKNEESRSKLVQLQAQSAAVESTGQAVAEARARAEAAIIEAESEIKQARLSTRAIEIEALSEIENLKAKHIVEIQHIKSLNNLELIKAKESATIETTKFENYVEALGSDTIKSIAQAPEETKAKLLAGLGLKSFMITDGKSPLNLFDTANGLIADAQRSEVDEE
–	binds	poly(ADP-ribose)polymerase Q8I7C6 (protein, UniProt Q8I7C6 1-700) MPPKKRQLSQSDEDVKTTTTTTTSTSTKPLTEIFDGIVFCFSGTFSVTQTELTKKVEGCGASTSKTCTAKVTHLVSTVDDFKKNGTAVSKALKSGIPIVTEGFITKSIEASKKLEEKDYSLSSSNDDEEEEEEEEEEEEEEEEEEVAKPTRRSSKKAPAKSEEKGEDKNKLTTRPTKKTKTNTSEAETKTAASDLDDSSSESEDEKNQISVKIKGRAANDPHFPDSRFHVYENGKDVYDATLNQTEISQNNNKFYIIQLLEADDGSSYSVWNRWGREGLKGQSSRKDFGKGGLNQAISLFCSKFYEKTKNTFTDRANFKKVAGKYDMIELDYSTDSKPKNGASTTATTTTTKKVVEHKKECSLDERVQELVKLIFDVKMMERTMTEAKYDLKKMPLGKLSKNQITKGYLVLKQIEDVMGGKSGESLSTLSSRFYTIIPHAFGMSVPPVINTNQMLIEKMNMLQNLADIEIATNIIKDSESDESNILELHYAKLKTDIQPLDENSCEYKNILLYVKNTYQGGKKPTIVNIFKIDRDGEADRYKTKKHLGNRKLLWHGSRLTNYASIISQGLRIAPPEAPVSGYRFGKGVYFADCMSLSANYCRTVGSNDFCMLLGDVALGKTADLARDTYMEKPQPNSHSTWALGTVEPDPKVFFQDTEGCITPYGQMIPSQHKGVSCYEHQYVVYDVAQVHLKYLLQLRN
–	binds	poly(ADP-ribose)polymerase Q55GU8 (protein, UniProt Q55GU8 1-644) MEKHQNQVIEENRSKPLINLTFFIDSKSKFKVSNYTLSKLIKDEFGGSIAFTLNPKVDYVITTSANFFSTKTTTFLSNQDLSKIKLINEDYFISQQKLEPTQRSKINDSYSIGNKQDSQVVNVCKKENDVVEKADDDLLKIIINPKHIPSVCYGANELKQPYFPEEYLILKSNLLSSTIIGKQNTNKFFYLELHQAIDNNLKKFYRIFTQFGRTDEIQKSNSQHRYVSNDLKEAMALYSSIYSQKIESDNGYIEVKMNSITKIGSKLKLAQLKQQKENDVNANTHIKVYNEETGEEETGQQSLFQRSYIETNVSKLMDIIYKEASKCLIKNFSVEVTENGIETQLGALSMAQIEEAKSILNEINNVLNKDGIDNQENLEMLSSRFYQLVPSKISTKKNRDSSKSVINSFESLNQLSELMNMMKDLTNSFNSNKTTSESKNHLDMKYYALNTHIEHLHQASAGYQIFIRNFLSNPHHQKAIDNGEIKILNCYRLDKKLESDNFLDVGNVQYLYHGSKPQNLVGLLSRGILPPDYVKQIGGKRTDFGYLGSGIYFSDDVVSSTYTSPIGEKGSRFIIMSSVSLGKVKEFSKIQPSLQCAPSGHHSCKGLKSTPTNPTDFKNNEYVVFNPNQSKLSFLIEYIENYKK

Where two headings read alike, the source gives them in different places. Results are given in words; binding and its absence hold for the method and conditions named. In cells and extracts the contact can be indirect. Here binding means that the protein was enriched with, or labelled near, the bait; the list need not be complete. Where a sequence is shown, tags or fusion partners need not be part of it.
